Experimental data from patent US11576382B2, “Naphthalene isoxazoline compounds for controlling invertebrate pests” (FMC Corporation, priority 2018, dated 2023).
Some results were stated once for a whole list of compounds, not compound by compound.

Experiments:
Format in all cases: in vivo
[1] = tested on: Western Flower Thrips (Frankliniellla occidentalis (Pergande)); experiment: Test H: control of Western Flower Thrips through contact and/or systemic means; details: Soleil bean plant, assessed after 6 days, very good to excellent levels of control efficacy
[2] = tested on: diamondback moth (Plutella xylostella (L.)); experiment: Test A: control of diamondback moth, foliar spray on mustard plant; details: assessed after 6 days, very good to excellent levels of control efficacy
[3] = tested on: sweetpotato whitefly (Bemisia tabaci (Gennadius)); experiment: Test G: control of sweetpotato whitefly through contact and/or systemic means; details: cotton plant infested with eggs, assessed after 13 days
[4] = tested on: potato leafhopper (Empoasca fabae (Harris)); experiment: Test D: control of potato leafhopper through contact and/or systemic means; details: Soleil bean plant, assessed after 6 days
[5] = tested on: fall armyworm (Spodoptera frugiperda (J. E. Smith)); experiment: Test B: control of fall armyworm, foliar spray on corn (maize) plant; details: assessed after 6 days, very good to excellent levels of control efficacy
[6] = tested on: green peach aphid (Myzus persicae (Sulzer)); experiment: Test E: control of green peach aphid through contact and/or systemic means; details: radish plant, assessed after 6 days
[7] = tested on: corn planthopper (Peregrinus maidis (Ashmead)); experiment: Test C: control of corn planthopper through contact and/or systemic means; details: sprayed at 50 ppm; corn (maize) plant; assessed after 6 days
[8] = tested on: cotton melon aphid (Aphis gossypii (Glover)); experiment: Test F: control of cotton melon aphid through contact and/or systemic means; details: okra plant, assessed after 6 days

Row | Structure (SMILES) | control efficacy: plant damage (30% or less plant damage and/or 100% mortality) ([1]; sprayed at 2 ppm) [%] | control efficacy: plant damage (30% or less plant damage and/or 100% mortality) ([1]; sprayed at 10 ppm) [%] | control efficacy: feeding damage (40% or less feeding damage and/or 100% mortality) ([2]; sprayed at 2 ppm) [%] | control efficacy: feeding damage (40% or less feeding damage and/or 100% mortality) ([2]; sprayed at 10 ppm) [%] | mortality ([3]; sprayed at 50 ppm) | mortality ([4]; sprayed at 10 ppm) | mortality ([4]; sprayed at 50 ppm) | control efficacy: feeding damage (40% or less feeding damage and/or 100% mortality) ([5]; sprayed at 2 ppm) [%] | control efficacy: feeding damage (40% or less feeding damage and/or 100% mortality) ([5]; sprayed at 10 ppm) [%] | mortality ([6]; sprayed at 50 ppm) | mortality [7] | mortality ([8]; sprayed at 10 ppm) | mortality ([8]; sprayed at 50 ppm) | mortality ([3]; sprayed at 10 ppm) | mortality ([4]; sprayed at 2 ppm) | mortality ([6]; sprayed at 10 ppm)
1 | CCC(NC(=O)c1ccc(C2=NOC(c3cc(Cl)c(F)c(Cl)c3)(C(F)(F)F)C2)c2ccccc12)c1ccccn1 (centres unmarked) [Compound 60] | ≤ 30 | ≤ 30 | ≤ 40 | ≤ 40 | at least 70% | at least 80% | at least 80% | ≤ 40 | ≤ 40 | at least 80% | at least 80% | at least 80% | at least 80% | – | – | –
2 | O=C(NCc1ncccn1)c1ccc(C2=NOC(c3cc(Cl)c(F)c(Cl)c3)(C(F)(F)F)C2)c2ccccc12 (centres unmarked) [Compound 61] | ≤ 30 | ≤ 30 | ≤ 40 | ≤ 40 | at least 70% | at least 80% | at least 80% | ≤ 40 | ≤ 40 | at least 80% | at least 80% | at least 80% | at least 80% | at least 70% | at least 80% | at least 80%
